The list is a part of this screen's results and no random one: it gathers tests that were run many times, whatever their T/C, doses with no T/C, and many T/C values between a quarter and a half above the control. Further doses and runs are listed elsewhere. T/C: endpoint of the treated group in % of that of the vehicle group. Some doses have a count of surviving animals in place of a T/C: the source files T/C as zero there, which appears to mark a toxic dose or a test without result, not a measured value. Some doses without a T/C left all or most animals alive at the check, yet need not have been tolerated: survival well below the control is almost never listed, so the zero probably covers shortened survival too. Counts of survivors are from the toxicity check (mostly the fifth day) where no day follows; animals may have died later. Schedule codes are those of the source, read here as Q, the interval in days (D) or hours (H), X, the number of doses. Some entries were tested several times; the results are listed from low to high. Brackets with × count equal records among those shown. For survival time, this PubChem deposit counts one and a half times the control or more as active, and values a quarter to a half above the control carry no call in these data; other NCI protocols may use other cut-offs.

This is an account of results in PubChem BioAssay AID330 (DTP/NCI, 2004).

The assay relates to P388 leukemia ip, CD2F1 mice, survival T/C. As to the kind of experiment: NCI In Vivo Anticancer Drug Screen. Data for tumor model P388 Leukemia (intraperitoneal) in CD2F1 (CDF1) mice. The settings on record: T/C endpoint: median survival time, higher T/C = longer survival.
Setting [1] is: dose: 100.0 mg/kg/injection, schedule: Q01DX005 (ip), vehicle: saline.
Setting [2] is: dose: 200.0 mg/kg/injection, schedule: Q01DX005 (ip), vehicle: saline.
Setting [3] is: dose: 240.0 mg/kg/injection, schedule: Q01DX005 (ip), vehicle: saline.
Where [4] appears, read: dose: 200.0 mg/kg/injection, schedule: Q01DX005 (ip), vehicle: saline with Tween-80.
Setting [5] is: dose: 200.0 mg/kg/injection, schedule: Q01DX009 (ip), vehicle: Klucel (hydroxypropylcellulose) (HPC).
Where [6] appears, read: dose: 240.0 mg/kg/injection, schedule: Q01DX005 (ip), vehicle: saline with Tween-80.
Setting [7] is: dose: 25.0 mg/kg/injection, schedule: Q01DX005 (ip), vehicle: Klucel (hydroxypropylcellulose) (HPC).
Where [8] appears, read: dose: 50.0 mg/kg/injection, schedule: Q01DX005 (ip), vehicle: Klucel (hydroxypropylcellulose) (HPC).
Where [9] appears, read: dose: 100.0 mg/kg/injection, schedule: Q01DX005 (ip), vehicle: Klucel (hydroxypropylcellulose) (HPC).
Setting [10] is: dose: 200.0 mg/kg/injection, schedule: Q01DX005 (ip), vehicle: Klucel (hydroxypropylcellulose) (HPC).
[11] abbreviates: dose: 200.0 mg/kg/injection, schedule: Q04DX002 (ip), vehicle: saline with Tween-80.
Setting [12] is: dose: 25.0 mg/kg/injection, schedule: Q01DX009 (ip), vehicle: saline.
The mark [13] stands for this setting: dose: 25.0 micrograms/kg/injection, schedule: Q01DX009 (ip), vehicle: saline + alcohol.
[14] abbreviates: dose: 50.0 micrograms/kg/injection, schedule: Q01DX009 (ip), vehicle: saline + alcohol.

Turning to `CN(C)CC(CN(C)C)C(=O)c1ccc(Cl)c(Cl)c1`, the survivor count reads like this: under setting [1], 3 of 6; under setting [2], 0 of 6.

As for `COc1cc2c(cc1OC)C1=[N+](CCC1)CC2`, the survivor count (dose: 120.0 mg/kg/injection, schedule: Q01DX005 (ip), vehicle: saline) was 3 of 6 and the survivor count under setting [3] is given as 0 of 6. On to `COc1ccc2c(c1O)-c1cc(O)cc3c1[C@@H](C2)N(C)CC3`, for which, under setting [4], the survivor count is listed as 0 of 6.

Turning to `O=C(Nc1cccc(Cl)c1)N1CCNC1=S`, under setting [5], the survivor count was 6 of 6.

With `CC(=O)Nc1cc2cc(N=CN(C)C)ccc2oc1=O`, where the note is “dose: 240.0 mg/kg/injection, schedule: Q01DX005 (ip), vehicle: Klucel + Tween-80”, the survivor count was 1 of 6. As to `CN(C)CCN(C)CC(C)(C)C(=O)/C=C/c1ccccc1`, the survivor count under setting [3] was 0 of 6. For `C=C1C(O)C23CCC4C(C(=O)O)(C(=O)O)CC(OC5OC(CO)C(O)C(OC(=O)CCc6ccccc6)C5NC(=O)CC(C)C)CC4(C)C2CCC1(O)C3` (configuration not stated), the survivor count by setting is: (dose: 6.25 mg/kg/injection, schedule: Q01DX005 (ip), vehicle: Klucel (hydroxypropylcellulose) (HPC)) 0 of 5; (dose: 12.5 mg/kg/injection, schedule: Q01DX005 (ip), vehicle: Klucel (hydroxypropylcellulose) (HPC)) 0 of 5. In the case of `CC1=CC(=C2C=CC(=[N+](C)C)C=C2)C=C(C)S1`, the T/C (dose: 12.5 mg/kg/injection, schedule: Q01DX009 (ip), vehicle: distilled water + Tween-80 + alcohol) is 126 % of control. Also, the survivor count was 3 of 6 and 4 of 6 (dose: 25.0 mg/kg/injection, schedule: Q01DX009 (ip), vehicle: distilled water + Tween-80 + alcohol); 0 of 6 (dose: 50.0 mg/kg/injection, schedule: Q01DX009 (ip), vehicle: distilled water + Tween-80 + alcohol); 0 of 6 (dose: 100.0 mg/kg/injection, schedule: Q01DX009 (ip), vehicle: distilled water + Tween-80 + alcohol); 0 of 6 (dose: 200.0 mg/kg/injection, schedule: Q01DX009 (ip), vehicle: distilled water + Tween-80 + alcohol). Consider `CCN(C)N=Nc1cccnc1`, for which, where the note is “dose: 100.0 mg/kg/injection, schedule: Q01DX009 (ip), vehicle: saline”, the T/C is 148 % of control. `C#CO[C@@H]1C[C@H](C)CCC1C(C)C` (some centres not stated): the survivor count under setting [6] is listed as 0 of 6. As for `CCN(CC)CC.[CH-]1CCCCC1.[CH-]1CCCCC1.[CH-]1CCCCC1.[Cl-].[N-]=C=NC(=O)NC1CCCCC1.[Sn+4]`, the survivor count is, setting by setting: (dose: 12.0 mg/kg/injection, schedule: Q01DX005 (ip), vehicle: Klucel (hydroxypropylcellulose) (HPC)) 2 of 6; under setting [7], 0 of 6; under setting [8], 0 of 6; under setting [9], 0 of 6; under setting [10], 0 of 6.

On to `COC(=O)c1cc(-c2cccnc2)[nH]c(=O)c1C#N`, for which the survivor count under setting [3] is 2 of 6.

With `CN(C)CC(CN(C)C)C(=O)C(C)(C)C`, the survivor count under setting [3] is listed as 0 of 6. `C1=C[N-]c2c3c(ccc2=C1)=CC=C[N-]3.C1=C[N-]c2c3c(ccc2=C1)=CC=C[N-]3.C1C[N-]C2C(C1)CCC1CC[N-]CC12.[Ni]`: the survivor count (dose: 12.5 mg/kg/injection, schedule: Q01DX005 (ip), vehicle: saline) is 0 of 6; the survivor count (dose: 50.0 mg/kg/injection, schedule: Q01DX005 (ip), vehicle: saline) was 0 of 6; the survivor count under setting [1] is given as 0 of 6; the survivor count under setting [2] is recorded as 0 of 6. As to `CN(C)C1=NC(NC2CCCCC2)(N(C)C)OC(N(C)C)=N1` (configuration not stated), the survivor count under setting [10] was 0 of 6. On to `CCCCCCCCCCCC1=C(O)C(=O)C(Br)=C(O)C1=O`, for which, under setting [4], the survivor count was 0 of 6. For the molecule `COc1ccc(C2OCOCC2C)cc1` (configuration not stated), where the note is “dose: 50.0 mg/kg/injection, schedule: Q01DX009 (ip), vehicle: saline with Tween-80”, the survivor count is given as 6 of 6. As to `COC(=O)CCC(Br)(Br)Br`, under setting [5], the survivor count is 6 of 6.

For `CC(=O)CC(=O)C1C(S[As](C)C)CC2C3CCC4=CC(=O)C=CC4(C)C3C(=O)CC21C` (configuration not stated), under setting [8], the survivor count is listed as 6 of 6. Consider `O=C1c2cc3c(-c4ccccc4)sc(-c4ccccc4)c3cc2C(=O)c2c(O)ccc(O)c21`, for which the survivor count (dose: 100.0 mg/kg/injection, schedule: Q04DX002 (ip), vehicle: saline with Tween-80) is on record as 6 of 6 and the survivor count under setting [11] is 6 of 6. With `Cc1ccc(/[N+]([O-])=N/N2C(=O)c3ccccc3C2=O)cc1`, under setting [10], the survivor count is recorded as 2 of 6. For the molecule `O=NNc1ccc(Sc2ccc(NN=O)cn2)nc1`, the T/C under setting [12] is 126 % of control. As to `CC1(C)CSC(=S)SC1`, the survivor count reads like this: under setting [11], 0 of 6; (dose: 400.0 mg/kg/injection, schedule: Q04DX002 (ip), vehicle: saline with Tween-80) 0 of 6.

As to `COc1cc2cc(c1Cl)N(C)C(=O)CC(OC(=O)C(C)C)C1(C)OC1C(C)C1CC(O)(NC(=O)O1)C(OC)/C=C/C=C(C)C2` (configuration not stated), the T/C by setting is: (dose: 6.25 micrograms/kg/injection, schedule: Q01DX009 (ip), vehicle: saline + alcohol) 130 % of control; (dose: 6.3 micrograms/kg/injection, schedule: Q01DX009 (ip), vehicle: saline + alcohol) 132 % of control; (dose: 12.5 micrograms/kg/injection, schedule: Q01DX009 (ip), vehicle: saline + alcohol) 107, 130, 133, 140 % of control; under setting [13], 111, 133, 141 % of control; under setting [14], 113 and 150 % of control. Besides, the survivor count was 6 of 6 under setting [13]; 3 of 6 and 6 of 6 under setting [14]; 3 of 6 (dose: 100.0 micrograms/kg/injection, schedule: Q01DX009 (ip), vehicle: saline + alcohol); 1 of 6 (2×) (dose: 200.0 micrograms/kg/injection, schedule: Q01DX009 (ip), vehicle: saline + alcohol). Take `O=c1[nH]cnc2[nH]ncc12`: the survivor count (dose: 200.0 mg/kg/injection, schedule: Q01DX009 (ip), vehicle: saline with Tween-80) is listed as 5 of 6.

As for `C#CCCCOCOCCOC`, under setting [3], the survivor count was 3 of 6.

In the case of `COc1ccc2c(c1)c(CBr)c(C)c[n+]2[O-]`, the survivor count was 4 of 6 under setting [7], 0 of 6 under setting [9] and 0 of 6 under setting [10]. Regarding `O=C([O-])c1cc(Br)cc(Br)c1[OH2+].O=C([O-])c1cc(Br)cc(Br)c1[OH2+].[Mn+2]`, under setting [6], the T/C was 126 % of control.

In the case of `CC(CN)OC12CC3CC(CC(C3)C1)C2` (configuration not stated), the survivor count under setting [6] is 0 of 6. Take `O=C1c2[nH]cnc2N(Cc2ccc(Cl)cc2)C2=NCCN12`: under setting [10], the survivor count is recorded as 2 of 5. With `O=C1C=CC(=O)C2(CO)OC12` (configuration not stated), the survivor count reads like this: (dose: 7.5 mg/kg/injection, schedule: Q04DX002 (ip), vehicle: saline with Tween-80) 0 of 6; (dose: 37.5 mg/kg/injection, schedule: Q04DX002 (ip), vehicle: saline) 0 of 6; (dose: 75.0 mg/kg/injection, schedule: Q04DX002 (ip), vehicle: saline) 0 of 6; (dose: 150.0 mg/kg/injection, schedule: Q04DX002 (ip), vehicle: saline) 0 of 6. As to `O=S(=O)(O)Sc1ncnc2nc[nH]c12`, the survivor count was 2 of 6 under setting [12]; 1 of 6 (dose: 37.5 mg/kg/injection, schedule: Q04DX003 (ip), vehicle: saline); 1 of 6 (dose: 400.0 mg/kg/injection, schedule: Q01DX009 (ip), vehicle: saline); 0 of 6 (dose: 600.0 mg/kg/injection, schedule: Q04DX003 (ip), vehicle: saline). Regarding `CCCCCCCCCCNCCSSCCNC(C)=O`, the survivor count by setting is: under setting [9], 0 of 5; under setting [10], 0 of 5. For `C1CCC2C(C1)CCC1CCCCC12` (configuration not stated), the T/C (dose: 400.0 mg/kg/injection, schedule: Q01DX001 (ip), vehicle: saline with Tween-80) is 126 % of control.
